{"source": "PubChem BioAssay AID1259308 | NCATS – 2017", "assay": "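Candidate targets for better recombinant protein yield in mammalian cells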 (primary screen)", "cell system": "human HEK293 embryonic kidney cells stably expressing firefly luciferase (HEK-CMV-Luc2-Hygro)", "knock-down reagent": "single siRNA against human genes, 0.8 pmol siRNA per well", "duration": "72 h", "measured": "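Luciferase light (ONE-Glo) measured on one replicate plate set and viability (CellTiter-Glo) on the other, scaled to a negative control siRNA, with robust z-scores and luciferase per cell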", "reading the numbers": "total luciferase, z-score: higher = more reporter protein produced", "active means": "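Active when the median/MAD z-score for overall luciferase is greater than 3; a gene was taken forward for validation with new siRNAs if at least two of its three siRNAs passed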", "calls": "active = raised luciferase; inactive = no rise", "note": "The whole screen tested about 59,000 reagents; shown is a random part of them. About 1,510 of all reagents (2.6%) count as active. 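Calls use total luciferase alone and ignore viability, so some active siRNAs may act by altering cell number.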 Reagents against one gene are numbered here. Not all columns of the deposit are shown. No sequences are given here."}
{"target gene":"ATP1B4 (GeneID 23439)","siRNA no.":1,"total luciferase, z-score":1.77,"outcome":"inactive"}
{"target gene":"ATP1B4 (GeneID 23439)","siRNA no.":2,"total luciferase, z-score":0.476,"outcome":"inactive"}
{"target gene":"ATP1B4 (GeneID 23439)","siRNA no.":3,"total luciferase, z-score":-1.42,"outcome":"inactive"}
{"target gene":"CLVS2 (GeneID 134829)","siRNA no.":1,"total luciferase, z-score":0.49,"outcome":"inactive"}
{"target gene":"CLVS2 (GeneID 134829)","siRNA no.":2,"total luciferase, z-score":-0.57,"outcome":"inactive"}
{"target gene":"CLVS2 (GeneID 134829)","siRNA no.":3,"total luciferase, z-score":0.214,"outcome":"inactive"}
{"target gene":"GZMM (GeneID 3004)","siRNA no.":1,"total luciferase, z-score":-0.545,"outcome":"inactive"}
{"target gene":"GZMM (GeneID 3004)","siRNA no.":2,"total luciferase, z-score":0.226,"outcome":"inactive"}
{"target gene":"GZMM (GeneID 3004)","siRNA no.":3,"total luciferase, z-score":-0.156,"outcome":"inactive"}
{"target gene":"ZNF714 (GeneID 148206)","siRNA no.":1,"total luciferase, z-score":0.0374,"outcome":"inactive"}
{"target gene":"ZNF714 (GeneID 148206)","siRNA no.":2,"total luciferase, z-score":3.13,"outcome":"active"}
{"target gene":"ZNF714 (GeneID 148206)","siRNA no.":3,"total luciferase, z-score":0.0169,"outcome":"inactive"}
{"target gene":"COL16A1 (GeneID 1307)","siRNA no.":1,"total luciferase, z-score":4.28,"outcome":"active"}
{"target gene":"COL16A1 (GeneID 1307)","siRNA no.":2,"total luciferase, z-score":-1.92,"outcome":"inactive"}
{"target gene":"COL16A1 (GeneID 1307)","siRNA no.":3,"total luciferase, z-score":-1.03,"outcome":"inactive"}
{"target gene":"HSPA12B (GeneID 116835)","siRNA no.":1,"total luciferase, z-score":-0.409,"outcome":"inactive"}
{"target gene":"HSPA12B (GeneID 116835)","siRNA no.":2,"total luciferase, z-score":-0.233,"outcome":"inactive"}
{"target gene":"HSPA12B (GeneID 116835)","siRNA no.":3,"total luciferase, z-score":1.09,"outcome":"inactive"}
{"target gene":"MYL11 (GeneID 29895)","siRNA no.":1,"total luciferase, z-score":-0.521,"outcome":"inactive"}
{"target gene":"MYL11 (GeneID 29895)","siRNA no.":2,"total luciferase, z-score":0.21,"outcome":"inactive"}
{"target gene":"MYL11 (GeneID 29895)","siRNA no.":3,"total luciferase, z-score":0.763,"outcome":"inactive"}
{"target gene":"ELMO2 (GeneID 63916)","siRNA no.":1,"total luciferase, z-score":-0.411,"outcome":"inactive"}
{"target gene":"ELMO2 (GeneID 63916)","siRNA no.":2,"total luciferase, z-score":0.132,"outcome":"inactive"}
{"target gene":"ELMO2 (GeneID 63916)","siRNA no.":3,"total luciferase, z-score":1.51,"outcome":"inactive"}
{"target gene":"SGTA (GeneID 6449)","siRNA no.":1,"total luciferase, z-score":0.293,"outcome":"inactive"}
{"target gene":"SGTA (GeneID 6449)","siRNA no.":2,"total luciferase, z-score":0.53,"outcome":"inactive"}
{"target gene":"SGTA (GeneID 6449)","siRNA no.":3,"total luciferase, z-score":1.6,"outcome":"inactive"}
{"target gene":"BTF3L4P2 (GeneID 653189)","siRNA no.":1,"total luciferase, z-score":-0.423,"outcome":"inactive"}
{"target gene":"BTF3L4P2 (GeneID 653189)","siRNA no.":2,"total luciferase, z-score":0.289,"outcome":"inactive"}
{"target gene":"BTF3L4P2 (GeneID 653189)","siRNA no.":3,"total luciferase, z-score":0.195,"outcome":"inactive"}
{"target gene":"SDHAF3 (GeneID 57001)","siRNA no.":1,"total luciferase, z-score":3.47,"outcome":"active"}
{"target gene":"SDHAF3 (GeneID 57001)","siRNA no.":2,"total luciferase, z-score":0.246,"outcome":"inactive"}
{"target gene":"SDHAF3 (GeneID 57001)","siRNA no.":3,"total luciferase, z-score":1.05,"outcome":"inactive"}

A portion of the results above, as a working copy:
{"target gene":"COL16A1 (GeneID 1307)","siRNA no.":1,"total luciferase, z-score":4.28,"outcome":"active"}
{"target gene":"COL16A1 (GeneID 1307)","siRNA no.":2,"total luciferase, z-score":-1.92,"outcome":"inactive"}
{"target gene":"COL16A1 (GeneID 1307)","siRNA no.":3,"total luciferase, z-score":-1.03,"outcome":"inactive"}
